Experimental data: PubChem BioAssay AID652243 (Drosophila RNAi Screening Center, 2013)

Test: 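Fly genes required for human androgen receptor driven transcription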 (primary screen)
Cells: Drosophila S2R+ cells
Reagent: long dsRNA against Drosophila genes
Duration: 72 h (48 h, then 24 h hormone)
Challenge: synthetic androgen R1881 at 10 nM for 24 h
Detection: 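Firefly light from an androgen-responsive reporter and Renilla control light per well, raw and unnormalised, for each of two replicates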
Reading the numbers: firefly reporter light: higher = more light from androgen-responsive reporter; Renilla control light: higher = more constitutive control signal (cell number, transfection)
Call rule: 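Across duplicate plates, a knock-down whose log firefly/Renilla ratio shifted a set fold down or up from the GFP/LacZ control mean was a hit; the downward cut appears as both 1.5 and 3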
Calls: active = hit: reporter lowered or raised; inactive = no hit
In all, the deposit lists about 24,000 reagents; this is a random part of those that have a named target and a result. Of all reagents, 246 (1%) are marked active. 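Plates not normalised; calls are printed but the firefly/Renilla ratio behind them is not deposited; fold cut for lowering reported inconsistently.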 Raw values are not corrected between plates. No sequences are given here. Not given: the amount of reagent.

gene | amplicon | firefly reporter light, replicate 1 | firefly reporter light, replicate 2 | Renilla control light, replicate 1 | Renilla control light, replicate 2 | Outcome
CG6345 | DRSC16024 | 2.73e5 | 2.28e5 | 2.44e6 | 1.91e6 | inactive
Wnt5 | DRSC20300 | 6.98e5 | 5.23e5 | 2.37e6 | 2.68e6 | inactive
Wnt5 | DRSC28853 | 5.39e5 | 4.27e5 | 1.07e6 | 1.51e6 | inactive
FER | DRSC12735 | 1.30e5 | 54548 | 1.91e5 | 1.04e5 | inactive
FER | DRSC16673 | 49957 | 1.10e5 | 1.62e6 | 9.43e5 | inactive
FER | DRSC29894 | 4.43e5 | 2.23e5 | 1.30e6 | 1.04e6 | inactive
FER | DRSC36606 | – | – | – | – | inactive
TwdlR | DRSC14736 | 1.95e5 | 1.42e5 | 1.84e6 | 1.96e6 | inactive
Sik2 | DRSC18522 | 3.39e5 | 3.76e5 | 4.13e6 | 3.74e6 | inactive
Sik2 | DRSC36760 | – | – | – | – | inactive
Sik2 | DRSC36761 | – | – | – | – | inactive
Hmgcl | DRSC02051 | 65810 | 82702 | 6.50e5 | 8.66e5 | inactive
CG14598 | DRSC12541 | 1.02e5 | 1.04e5 | 2.69e6 | 1.96e6 | inactive
CG14598 | DRSC30074 | 1.11e6 | 1.60e6 | 1.60e6 | 1.24e6 | inactive
Calx | DRSC13457 | 2.73e5 | 2.52e5 | 4.34e5 | 6.11e5 | inactive
Calx | DRSC13459 | 2.72e5 | 1.89e5 | 4.41e5 | 4.77e5 | inactive
Calx | DRSC16599 | 2.34e5 | 2.52e5 | 3.69e6 | 3.60e6 | inactive
Calx | DRSC21850 | 5.17e5 | 4.05e5 | 8.69e5 | 7.58e5 | inactive
Calx | DRSC24386 | 8.36e5 | 7.82e5 | 1.02e6 | 9.34e5 | inactive
Megf8 | DRSC03058 | 7.10e5 | 8.62e5 | 1.62e6 | 1.71e6 | inactive
Ir40a | DRSC03732 | 2.36e5 | 2.79e5 | 1.42e6 | 1.34e6 | inactive
Ir40a | DRSC03733 | 2.41e5 | 2.66e5 | 1.53e6 | 1.13e6 | inactive
CG31823 | DRSC01887 | 1.52e5 | 1.82e5 | 1.53e6 | 2.38e6 | inactive
CG43339 | DRSC02466 | 8.14e5 | 6.18e5 | 1.29e6 | 1.51e6 | inactive

Continued, starting with the last 5 of the part before.
gene | amplicon | firefly reporter light, replicate 1 | firefly reporter light, replicate 2 | Renilla control light, replicate 1 | Renilla control light, replicate 2 | Outcome
Megf8 | DRSC03058 | 7.10e5 | 8.62e5 | 1.62e6 | 1.71e6 | inactive
Ir40a | DRSC03732 | 2.36e5 | 2.79e5 | 1.42e6 | 1.34e6 | inactive
Ir40a | DRSC03733 | 2.41e5 | 2.66e5 | 1.53e6 | 1.13e6 | inactive
CG31823 | DRSC01887 | 1.52e5 | 1.82e5 | 1.53e6 | 2.38e6 | inactive
CG43339 | DRSC02466 | 8.14e5 | 6.18e5 | 1.29e6 | 1.51e6 | inactive
CG13510 | DRSC04152 | 3.75e5 | 3.57e5 | 2.46e6 | 1.72e6 | inactive
CG34136 | DRSC38614 | 3.57e5 | 3.16e5 | 1.04e6 | 7.12e5 | inactive
CG5386 | DRSC25017 | 4.67e5 | 5.14e5 | 4.99e5 | 6.96e5 | inactive
Nubpl | DRSC03725 | 5.18e5 | 4.33e5 | 2.69e6 | 1.95e6 | inactive
ScsbetaG | DRSC11294 | 1.58e5 | 1.93e5 | 2.23e6 | 2.23e6 | inactive
ScsbetaG | DRSC26044 | 3.51e5 | 3.06e5 | 7.60e5 | 7.07e5 | inactive
janB | DRSC16973 | 1.97e5 | 2.03e5 | 1.78e6 | 2.58e6 | inactive
CG8736 | DRSC07255 | 5.06e5 | 4.54e5 | 3.34e6 | 2.47e6 | inactive
CG8736 | DRSC27360 | 3.19e5 | 4.13e5 | 4.15e5 | 4.74e5 | inactive
ct | DRSC18757 | 26949 | 25793 | 4.99e5 | 3.98e5 | inactive
ct | DRSC25100 | 9.36e5 | 4.33e5 | 6.01e5 | 5.42e5 | inactive
Dci | DRSC08360 | 5.57e5 | 5.71e5 | 2.43e6 | 2.92e6 | inactive
Dci | DRSC28929 | 4.05e5 | 4.51e5 | 1.07e6 | 8.76e5 | inactive
CG3610 | DRSC15502 | 2.31e5 | 1.81e5 | 2.84e6 | 2.46e6 | inactive
CG3610 | DRSC27339 | 1.68e5 | 2.27e5 | 8.28e5 | 8.81e5 | inactive
CG10164 | DRSC14197 | 3.93e5 | 3.47e5 | 1.95e6 | 3.61e6 | inactive
